Results published in PubChem BioAssay AID2685 (National Center for Advancing Translational Sciences (NCATS), 2010).
About 2,100 (0.66%) of roughly 320,000 compounds were called active. The shares of active, inactive and inconclusive entries below differ from those in the screen. Calls follow the shape of the dose curve; as a rule, active = well fitted inhibition curve with a large enough effect in the signal ratio, with a control signal flat (not every such curve was filed as active); inconclusive = small, poorly fitted or top-dose-only effect, or effect the other way, or a change in a side signal; inactive = flat fitted curve, though single readings scatter; the % refers to the signal ratio. Potencies beside an inconclusive call are fits to weak or partial responses and may not hold up.

Test: qHTS Assay for Lipid Storage Modulators in Drosophila S3 Cells
Conditions: BODIPY lipid droplet fluorescence, 18-24 h, cells fed with added oleic acid; lipid storage change, negative = inhibition: at 46.1 µM (top of the series) unless noted
Procedure, shortened: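 Drosophila S3 cells loaded with oleic acid (400 uM, as added) and compounds at several concentrations; lipid droplets imaged by 488-nm laser-scanning cytometry, 500–530 nm intensity and object ratio to cell channel. Percent activity normalized to 20 uM Triacsin C.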
% is scaled to controls: 0 for no effect and ±100 for the full control effect; potency is read from the fitted curve at half-maximal effect.

| Compound | lipid storage change, negative = inhibition | Potency |
| --- | --- | --- |
| CCOc1ccccc1NC(=O)c1cccc2c1C(=O)N(CCOC)C2 | inconclusive: 82.9% | – |
| Cc1ccc2c(CC(=O)Nc3ccc(N4CCN(C)CC4)cc3C)coc2c1 | inconclusive: 14.8% | – |
| COc1cccc2sc(NC(=O)c3ccc(Br)s3)nc12 | inconclusive: 41.8% | – |
| O=C(CN1C(=O)C2CC=CCC2C1=O)Nc1cc(C(F)(F)F)ccc1N1CCCC1 (configuration not stated) | inconclusive | – |
| Clc1ccc(C2=Nn3c(nnc3-c3cccnc3)SC2)s1 | inactive | – |
| CCOC(=O)c1cc2c(=O)n3ccccc3nc2n(CC(C)C)c1=NC(=O)c1c(-c2c(F)cccc2Cl)noc1C | inconclusive: -8.17% | – |
| CC(NC(=O)CNC(=O)C1CCCCC1)c1cccc(Cl)c1 (configuration not stated) | inconclusive: -1.29% | – |
| CNc1c([N+](=O)[O-])cnn1-c1ccc(F)cc1 | inconclusive: -13.4% | – |
| Cc1cccc(-n2c(C)cc(C(=O)NC3CCCCC3)c2C)c1 | – | active: 20.6 µM |
| COc1ccccc1N1C(=O)C2CC(C)=C(C)CC2C1=O (configuration not stated) | inconclusive: -48.8% | – |
| COc1ccc([C@H]2Oc3cc(O)cc(O)c3C(=O)C2[C@@H]2C(=O)c3c(O)cc(O)cc3O[C@@H]2c2ccc(OC)cc2)cc1 (some centres not stated) | – | inconclusive: 29.1 µM [cytotoxic, single point] |
| CCc1ccc(C(=O)c2cncc(Br)c2)cc1 | – | inconclusive: 25.9 µM [activator, single point] |
| COc1cc2c(cc1OC)CN(C(=O)C(C)(C)C)CC2 | inconclusive: 33.6% | – |
| Cn1ncc2cc(NC(N)=S)ccc21 | inconclusive: 13% | – |
| CCOc1ccc(S(=O)(=O)N2CCC(C(=O)NCCN3CCOCC3)CC2)cc1C | inconclusive: -22.7% | – |
| Cc1ccc(C(=O)OCC(=O)c2ccc(CC(=O)N3CCOCC3)s2)c(C)c1 | inconclusive | – |
| CCCNC(=O)NC(=O)CN1C(=O)NC(C)(c2ccc3ccccc3c2)C1=O (configuration not stated) | inconclusive: -44.4% | – |
| CSc1ccc(C(=S)N2CCN(C(c3ccccc3)c3ccccc3)CC2)cc1 | – | inconclusive: 0.517 µM [activator, full curve, poor fit] |
| COCCSc1ccccc1C(=O)Nc1cc([N+](=O)[O-])ccc1OC | inconclusive: -3.86% | – |
| CSc1nncc(-c2ccccc2)n1 | – | inconclusive: 0.82 µM [falling, partial curve, poor fit] |
| CCOC(=O)CCNC(=O)CCNC(=O)C(c1ccccc1)c1ccccc1 | inconclusive: 1.09% | – |
| COC(=O)/C=C/c1ccccc1CN1[C@@H](CC(=O)OC)c2ccccc2S1(=O)=O | – | inconclusive: 29.1 µM [activator, single point] |
| NS(=O)(=O)c1ccc(CCNC(=O)CN2CCCCCC2)cc1 | inconclusive: -66.4% | – |
| Fc1ccc(CN2CCCN(Cc3nc(-c4ccc5c(c4)OCO5)no3)CC2)cc1 | inconclusive: 32.8% | – |
| O=[N+]([O-])c1cc(C(F)(F)F)ccc1NC1CCN(Cc2ccccc2)C1 (configuration not stated) | inconclusive: 19.2% | – |
| CCOC(=O)CNC(=O)CSc1ncnc2c1cnn2-c1ccc(Cl)cc1 | inconclusive: -40.3% | – |

| Compound | lipid storage change, negative = inhibition | Potency |
| --- | --- | --- |
| O=C(/C=C/c1ccccc1)NCCS(=O)(=O)N1CCN(c2ccccc2)CC1 | inconclusive: 47.2% | – |
| N#Cc1ccc(CN2CCN(C(=O)CN3C(=O)NC4(CCCC4)C3=O)CC2)cc1 | inconclusive | – |
| COc1ccc(-n2nc(C(=O)NCC(=O)NCCCN3CC(C)CC(C)C3)c3ccccc3c2=O)cc1 (configuration not stated) | – | inconclusive: 20.6 µM [activator, partial curve] |
| O=C(NC1=NCCS1)C12CC3CC(CC(C3)C1)C2 | inconclusive: -46.7% [at 0.00295 µM] | – |
| CCOC(=O)c1[nH]nc2c1C(=O)N(CC)C2=O | inconclusive: 8.42% | – |
| CC(C)c1ccc(OCc2ccc(C(=O)N3CCCC3)o2)cc1 | inconclusive: -16% | – |
| Cc1ccc(-c2noc(CSc3nnc(Cc4ccccc4)n3-c3cccc(C)c3)n2)cc1 | – | inconclusive: 1.16 µM [activator, partial curve] |
| O=S(=O)(Cc1ccc(Cl)cc1)NCc1ccc2c(c1)OCO2 | inconclusive: -5.78% | – |
| Fc1ccc(-c2cn3ccccc3n2)cc1 | – | inconclusive: 29.1 µM [falling, single point] |
| COC(=O)CCc1sc(Nc2ccccc2)nc1-c1ccc(OC)cc1 | inactive | – |
| O=C(NCCc1ccc(Cl)cc1)c1ccc(OCC2CCCO2)cc1 (configuration not stated) | inconclusive: -1.22% | – |
| CCOc1ccc(-n2c(O)c(/C=N/Nc3nnc(C)c(=O)[nH]3)c3ccccc3c2=O)cc1 | inconclusive: -29.5% | – |
| Clc1ccc(-n2nnnc2-c2ccccc2)cc1Cl | inconclusive: 20.6% | – |
| CC(=O)c1ccc(N/N=C(/C(N)=O)C2=NC(C)(C)Cc3ccccc32)cc1 | – | inconclusive: 29.1 µM [falling, single point] |
| CCC1(c2ccccc2)NC(=O)N(CC(=O)Nc2ccccc2N2CCCCC2)C1=O (configuration not stated) | – | inconclusive: 29.1 µM [activator, single point] |
| COc1ccccc1N1CCN(C(=O)COc2cc(C)cc3oc(=O)cc(C)c23)CC1 | inconclusive: 38.3% | – |
| COc1cc(/C=N/n2c(SC)nnc(C(C)(C)C)c2=O)ccc1O | – | inconclusive: 0.0259 µM [falling, full curve, poor fit] |
| COc1ccc(OCC2CCCN(Cc3nc(CC4CC4)no3)C2)cc1 (configuration not stated) | – | inconclusive: 29.1 µM [activator, single point] |
| COc1ccc(C(=O)N2CCN(C(=O)c3ccco3)CC2)cc1 | inconclusive: 10.2% | – |
| Cc1ccc(-c2nsc3c(N4CCC(C(N)=O)CC4)ncnc23)cc1 | – | inconclusive: 32.6 µM [falling, single point] |
| CCOc1ccc(OCCCC(=O)N2CCN(S(=O)(=O)c3ccc(Cl)cc3)CC2)cc1 | inconclusive | – |
| O=C1Nc2cc(C(=O)N3CCC(N4CCCCC4)CC3)ccc2S/C1=C\c1ccccc1 | – | inconclusive: 29.1 µM [falling, single point] |
| CC1(C)CSC(=NCCc2ccccc2)N1 | – | inconclusive: 29.1 µM [falling, single point] |
| CC(=O)Nc1cc(C(=O)c2ccccc2)ccc1N1CCOCC1 | – | inconclusive: 8.2 µM [activator, partial curve] |
| Cc1cccc(C(=O)NC(=S)Nc2ccccc2C(F)(F)F)c1 | – | inconclusive: 14.6 µM [activator, partial curve, poor fit] |
| CC(=O)c1ccc2noc(-c3ccccc3)c2c1 | inconclusive: -19.7% | – |

| Compound | lipid storage change, negative = inhibition | Potency |
| --- | --- | --- |
| Cc1ccc(OCC(=O)Nc2ccc(S(=O)(=O)Nc3cc(C)nc(C)n3)cc2)c(C)c1 | inconclusive | – |
| O=C(Nc1ncc2c(n1)CC(c1ccco1)CC2=O)c1ccc(Cl)cc1 (configuration not stated) | – | inconclusive: 23.1 µM [activator, single point] |
| C#Cc1cccc(NC(=O)C2CCN(C(C)=O)CC2)c1 | inconclusive: 12.5% | – |
| CN(CC(=O)Nc1ccccc1Cl)C(=O)CSc1nnc(-c2ccco2)n1C | – | inconclusive: 6.51 µM [activator, single point] |
| CC1CCCCN1S(=O)(=O)c1ccc(NC(=O)CSc2nnnn2C)cc1 (configuration not stated) | inconclusive: 6.11% | – |
| CN=C1S/C(=C\c2cc(C)n(-c3ccccc3F)c2C)C(=O)N1C | – | inconclusive: 23.1 µM [falling, single point] |
| O=C(Nc1ccccc1)N(Cc1cccs1)C1CCCC1 | – | inconclusive: 14.6 µM [activator, single point] |
| CC(=O)CNc1ccc(S(=O)(=O)N/N=C/c2ccccc2)cc1 | inconclusive: -15% | – |
| COc1ccc(CCNC(=O)c2cc3c(=O)n4cccc(C)c4nc3n(CCCN3CCOCC3)c2=N)cc1 | – | inconclusive: 0.58 µM [falling, full curve] |
| Cc1cc(C)cc(NC(=O)C(=O)NCc2ccccn2)c1 | inconclusive: 30.8% | – |
| CCN1CCCC1CN(Cc1cc2ccc(C)c(C)c2[nH]c1=O)C(=O)Nc1ccccc1OC (configuration not stated) | inconclusive: -1.83% | – |
| CCOC(=O)c1c(NC(=O)CSc2nc3ccc(OC)cc3[nH]2)sc2c1CC(C)(C)NC2(C)C | inconclusive | – |
| CCOc1ccc(C(=O)Nc2ccc(S(=O)(=O)N3CCOCC3)cc2)cc1OCC | inconclusive: -32.8% | – |
| CCOC(=O)COc1ccc(S(=O)(=O)Nc2ccc(C)cc2)cc1 | inactive | – |
| Cc1ccc(Nc2nc(N)nc(CCl)n2)c(C)c1 | – | inconclusive: 0.366 µM [activator, full curve, poor fit] |
| CN(C)S(=O)(=O)c1ccc(C(=O)NN2C(=O)NC3(CCCCC3)C2=O)cc1 | inconclusive | – |
| O=C(Nc1cccc(F)c1)C1CCN(c2nnnn2-c2ccccc2)CC1 | inconclusive: 23.4% | – |
| O=C(O)C1CCC(CNS(=O)(=O)c2ccccc2)CC1 (configuration not stated) | inconclusive: -14.5% | – |
| Cn1nccc1C(=O)Nc1ccc2c(c1)OCO2 | inconclusive: 18.7% | – |
| CCS(=O)(=O)c1ccc(-c2cccc(NC(=O)c3ccc(Br)o3)c2)nn1 | inconclusive | – |
| COC(=O)c1sc(S(=O)(=O)N2CC(C)OC(C)C2)c(C(=O)OC)c1C (configuration not stated) | inconclusive: 17.5% | – |
| C=CCn1c(SC(F)F)nc2scc(-c3ccco3)c2c1=O | – | active: 0.058 µM |
| CCCNC(=O)Cn1cnc2sc(C(=O)Nc3cc(OC)c(OC)c(OC)c3)c(C)c2c1=O | inconclusive: -1.58% | – |
| CC(NC(=O)c1nn(C)c2c1CS(=O)(=O)c1ccccc1-2)c1ccccc1 (configuration not stated) | – | inconclusive: 23.1 µM [activator, single point] |
| COc1ccc(S(=O)(=O)N(C)CC(=O)NC2CCCC2)cc1Cl | – | inconclusive: 6.51 µM [rising, partial curve] |

Sorted by count of non-hydrogen atoms (ascending): 3 of the compounds above.

| Compound | lipid storage change, negative = inhibition | Potency |
| --- | --- | --- |
| O=C(O)C1CCC(CNS(=O)(=O)c2ccccc2)CC1 (configuration not stated) | inconclusive: -14.5% | – |
| O=C(Nc1ccccc1)N(Cc1cccs1)C1CCCC1 | – | inconclusive: 14.6 µM [activator, single point] |
| CCOC(=O)COc1ccc(S(=O)(=O)Nc2ccc(C)cc2)cc1 | inactive | – |
